{
  "source": "patent US11712483B2",
  "about": "“Activatable membrane-interacting peptides and methods of use” (priority 2013, dated 2023)",
  "key": {"thrombin [1]": {"target": "T1, thrombin (Homo sapiens, UniProt P00734)", "assay": "Time-dependent intrinsic fluorescence, activation of promolecule by thrombin", "assay_type": "biochemical", "conditions": "thrombin 2 nM (nanomolar), liposomes, FIG. 8"}, "thrombin [2]": {"target": "T1, thrombin", "assay": "Selective activation in MDA-MB-231 cells, trypan blue, thrombin", "assay_type": "cell-based", "conditions": "FIG. 24 Panel A"}, "plasmin": {"target": "plasmin (Homo sapiens, UniProt P00747)", "assay": "Selective activation in Jurkat cells, trypan blue, exogenous plasmin", "assay_type": "cell-based", "conditions": "promolecule 50 μM, plasmin 200 nM"}, "[3]": {"assay": "Intrinsic tryptophan fluorescence with liposomes or detergent micelles", "assay_type": "binding", "from_the_text": "Intrinsic fluorescence was used to characterize promolecules containing one or more tryptophan residues in portion A. As the spectral properties of tryptophan are dependent upon its local environment, this provides unequivocal definition of its partitioning into phospholipid membranes. In aqueous conditions, tryptophan typically emits light near 355 nm when excited with 285 nm light. In contrast, the emitted light is […] or lowered when the tryptophan of the peptide is present in an apolar environment, such as the interior of a phospholipid membrane, and produces a maximum emission wavelength typically in the range of 325 to 345 nm. Both the magnitude and wavelength of light emitted under this fluorescence assay are influenced by the properties of the peptide and the composition of the phospholipid membrane. […] A typical assay employed an 8 μM solution of promolecules and liposomes of defined size (100 nm in diameter, 0.5 mM) composed of phosphatidylserine or phosphatidylcholine or a combination thereof to test the influence of negatively charged or zwitterionic surfaces. Alternatively, detergent micelles of sodium dodecylsulphate (10 mM) or dodecylphosphocholine (5 mM) were used in place of liposomes, as they were easier to prepare and provided similar results. Time-dependent measurement of the fluorescence emission spectra was used to characterize the activation of the promolecules by thrombin (2 nM) or by other proteases (10 nM or higher)."}, "thrombin [4]": {"target": "T1, thrombin", "assay": "Selective activation in Jurkat cells, trypan blue, exogenous thrombin", "assay_type": "cell-based", "conditions": "promolecule 50 μM, thrombin 5 nM, listed as proAP1"}, "other proteases": {"test_system": "other proteases", "assay": "Activation of promolecule by other proteases", "assay_type": "biochemical"}, "coagulation factor Xa": {"target": "coagulation factor Xa (Homo sapiens, UniProt P00742)", "assay": "Selective activation in Jurkat cells, trypan blue, exogenous coagulation factor Xa", "assay_type": "cell-based", "conditions": "promolecule 50 μM, factor Xa 200 nM"}},
  "note": "Entries after “also recorded” stand apart in the source; their conditions may differ. Part of at least one peptide drawing is inferred or uncertain, most often the ends. Where no end group is shown, it is not given here.",
  "data": [
    {"sequence": "FVQWFSKFLGKLLPRSFLLQDPNDQYEPFW [SEQ ID NO: 47]", "values": [
      {"measurement": "activation of promolecule by thrombin", "setting": "thrombin [1]", "value": "efficient activation of the promolecule; also recorded: thrombin activated the promolecule"},
      {"measurement": "activation by thrombin (trypan blue dye uptake)", "setting": "thrombin [2]", "value": "selectively activated by thrombin"},
      {"measurement": "activation of promolecule by plasmin (cell death, trypan blue)", "setting": "plasmin", "value": "neither plasmin nor factor Xa activated the promolecules"},
      {"measurement": "maximum emission wavelength / spectral properties, intrinsic tryptophan fluorescence", "setting": "[3]; in presence of PC or PS liposomes or detergent micelles compared to buffer alone (PBS)", "value": "do not change"},
      {"measurement": "binding to liposomes", "setting": "[3]; inactive promolecule form", "value": "no binding to liposomes"},
      {"measurement": "interaction with detergents", "setting": "[3]; inactive promolecule form", "value": "limited interaction with detergents"},
      {"measurement": "activation of promolecule by thrombin (cell death, trypan blue)", "setting": "thrombin [4]", "value": "thrombin selectively activates the promolecule; also recorded: efficiently converted the promolecules into the activated peptide form"},
      {"measurement": "activation of promolecule by other proteases", "setting": "other proteases; much higher concentrations, FIG. 9", "value": "other proteases did not activate the promolecule"},
      {"measurement": "activation of promolecule by several other proteases", "setting": "other proteases; nanomolar concentrations, FIG. 8", "value": "several other proteases did not"},
      {"measurement": "activation of promolecule by factor Xa (cell death, trypan blue)", "setting": "coagulation factor Xa", "value": "neither plasmin nor factor Xa activated the promolecules"}
    ]}
  ]
}
